The target of assay [1] is T1, Enp1-TAP (S. cerevisiae) (UniProt P38333).
T1 sequence: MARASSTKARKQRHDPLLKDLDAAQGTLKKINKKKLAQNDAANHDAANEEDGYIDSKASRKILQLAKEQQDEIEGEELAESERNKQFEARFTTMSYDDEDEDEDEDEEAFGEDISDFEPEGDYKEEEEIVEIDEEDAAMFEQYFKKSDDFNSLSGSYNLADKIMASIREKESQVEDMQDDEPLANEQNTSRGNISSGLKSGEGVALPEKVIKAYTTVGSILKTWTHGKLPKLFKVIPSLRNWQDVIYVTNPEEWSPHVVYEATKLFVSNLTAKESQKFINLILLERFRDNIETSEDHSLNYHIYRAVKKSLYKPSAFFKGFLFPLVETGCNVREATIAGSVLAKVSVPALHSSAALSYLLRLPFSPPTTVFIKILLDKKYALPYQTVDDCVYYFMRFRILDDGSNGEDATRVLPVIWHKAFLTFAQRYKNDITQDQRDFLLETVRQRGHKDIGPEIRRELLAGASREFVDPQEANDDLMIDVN
Briefly: affinity purification with mass spectrometry; Enp1-TAP captured from yeast extract on rabbit IgG Dynabeads, TEV elution, pre-ribosomal particles pelleted through a sucrose cushion; excised gel bands and the whole sample by LC-MS/MS; cells with Bud23 (AJY2665) or depleted of Bud23-AID (AJY4395, 0.5 mM auxin, 2 hours); 50 mM Tris-HCl pH 7.6, 100 mM KCl, 5 mM MgCl2, 0.1% TritonX-100, 4°C.

By UniProt entry, the sequences of proteins in these tests, tags left out.
UniProt P40160: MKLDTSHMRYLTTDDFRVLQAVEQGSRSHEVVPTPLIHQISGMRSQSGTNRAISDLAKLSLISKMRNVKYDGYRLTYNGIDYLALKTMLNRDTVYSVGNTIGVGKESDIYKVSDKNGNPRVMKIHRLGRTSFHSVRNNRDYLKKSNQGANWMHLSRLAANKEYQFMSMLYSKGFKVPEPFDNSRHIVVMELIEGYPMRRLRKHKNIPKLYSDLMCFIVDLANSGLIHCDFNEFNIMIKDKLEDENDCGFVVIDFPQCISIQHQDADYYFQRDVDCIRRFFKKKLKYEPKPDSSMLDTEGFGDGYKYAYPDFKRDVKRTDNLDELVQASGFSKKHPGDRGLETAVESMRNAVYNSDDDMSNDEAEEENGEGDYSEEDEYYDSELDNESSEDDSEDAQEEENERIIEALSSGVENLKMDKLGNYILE

Assay [2] has as its target T1, Enp1-TAP (S. cerevisiae). The assay is described as above. This is another data set of the same source.

Where two headings read alike, the source gives them in different places. These are yes or no findings as the source states them, for the method shown. Binding seen in cells or lysates may run through a third protein. Here binding means that the protein was enriched with, or labelled near, the bait; the list need not be complete.

Turning to Rio2 (from UniProt P40160 1-425), the binding entry in assay [1] is listed as “binds”.

B1: Nob1 (protein, UniProt Q08444 1-459)
chain: MTENQTAHVRALILDATPLITQSYTHYQNYAQSFYTTPTVFQEIKDAQARKNLEIWQSLGTLKLVHPSENSIAKVSTFAKLTGDYSVLSANDLHILALTYELEIKLNNGDWRLRKKPGDALDASKADVGTDGKQKLTEDNKKEEDSESVPKKKNKRRGGKKQKAKREAREAREAENANLELESKAEEHVEEAGSKEQICNDENIKESSDLNEVFEDADDDGDWITPENLTEAIIKDSGEDTTGSLGVEASEEDRHVALNRPENQVALATGDFAVQNVALQMNLNLMNFMSGLKIKRIRNYMLRCHACFKIFPLPKDGKPKHFCASCGGQGTLLRCAVSVDSRTGNVTPHLKSNFQWNNRGNRYSVASPLSKNSQKRYGKKGHVHSKPQENVILREDQKEYEKVIKQEEWTRRHNEKILNNWIGGGSADNYISPFAITGLKQHNVRIGKGRYVNSSKRRS
Turning to B1, the binding result in assay [2] is listed as “binds”.

B2: Tsr1 (protein, UniProt Q07381 1-788)
chain: MAGHSHRSSLKNGHKSYKSKHASKGALKRLYKGKVEKEPVGTGKPDKQVSKLQRKNKAKQLRAQRILDSIENRKLFEGKNGAAKIITIVPLVNDLDPLDILYKLLKCADDEGIMVQEVDSKRIFNVHIKKFKSNLKIIIPDMTNFLNILDCAKVADFVVFGLSGVQEVDEEFGEQIIRALELQGIASYIGVISNLSAVHEKEKFQLDVKQSLESYFKHFFPSEERVYNLEKNSDALNVLRTLCQRLPRSINWRDNRGYVVADFVDFVETSPDSGDLVIEGTVRGIGFNANRLVHIPDFGDFQLNKIEKISESSQKRKIIKEKATDSLSLELDLQTVFESNMNRDTLDEYAPEGTEDWSDYDEDFEYDGLTTARYDDHGFLPGREQTSKKAAVPKGTSDYQAKWYLDDVIDANEEEEAEQTNGKDETMMEIDDEMMVEQDNEEVAGDEEYDIEDNEGFEELSPEEEERQLREFRDMEKEDREFPDEIELEPSESAIERLKRYRGLKNLYNCDWQVDEKDPSSPAEWKRLLRIGNYKNTKNRIIKETKNEAQAIAGDRIRMFIRFPKFLLEKIQDPKQLLFAVYGLLLHEHKNAVVNFSLQRWEQYDKPVPSQEPIVVQYGVRRYTIQPLFSQGSNSPNNVHKYERFLHPDTVSVATCIAPVDFTQSPAIFFKPSPTDAKNIELIGHGTFLNADHSRILAKRAILTGHPFRFHKTVVTVRYMFFRPEDVEWFKSIPLFTKSGRSGFIKESLGTHGYFKATFDGKLSAQDVVAMSLYKRMWPMPSLPWNGM
With B2, in assay [2], the binding entry is recorded as “binds”.
